# From PubChem BioAssay AID504327 (National Center for Advancing Translational Sciences (NCATS), 2011)
# By UniProt entry, the sequences of proteins in these tests, tags left out.
# UniProt Q92830, whole entry, looked up: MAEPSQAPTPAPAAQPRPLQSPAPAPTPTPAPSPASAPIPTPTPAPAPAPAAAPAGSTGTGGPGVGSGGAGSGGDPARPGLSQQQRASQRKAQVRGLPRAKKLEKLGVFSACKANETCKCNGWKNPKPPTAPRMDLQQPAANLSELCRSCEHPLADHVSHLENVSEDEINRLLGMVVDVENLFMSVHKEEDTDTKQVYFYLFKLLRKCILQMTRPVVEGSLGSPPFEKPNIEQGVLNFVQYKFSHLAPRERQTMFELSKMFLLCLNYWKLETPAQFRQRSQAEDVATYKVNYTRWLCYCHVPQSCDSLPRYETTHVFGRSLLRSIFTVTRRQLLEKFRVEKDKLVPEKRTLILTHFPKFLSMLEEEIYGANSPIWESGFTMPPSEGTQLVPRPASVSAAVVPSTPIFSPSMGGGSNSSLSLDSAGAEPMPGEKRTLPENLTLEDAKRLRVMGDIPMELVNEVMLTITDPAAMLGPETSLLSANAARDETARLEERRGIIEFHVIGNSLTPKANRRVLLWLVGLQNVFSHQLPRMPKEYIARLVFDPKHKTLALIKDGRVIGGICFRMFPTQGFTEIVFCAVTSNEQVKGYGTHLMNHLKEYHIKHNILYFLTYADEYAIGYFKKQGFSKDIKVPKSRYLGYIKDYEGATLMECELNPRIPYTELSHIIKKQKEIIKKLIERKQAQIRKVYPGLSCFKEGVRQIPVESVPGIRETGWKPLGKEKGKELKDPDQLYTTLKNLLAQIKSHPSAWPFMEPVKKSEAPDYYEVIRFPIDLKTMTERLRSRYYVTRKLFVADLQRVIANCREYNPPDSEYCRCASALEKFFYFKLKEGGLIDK
# The whole screen tested about 390,000 compounds, of which about 820 (0.21%) were called active. Inconclusive means that the source gave no clear call. Such entries were picked first, then a sample of the others. Calls follow the shape of the dose curve; as a rule, active = well fitted inhibition curve with a large enough effect; inconclusive = small, poorly fitted or top-dose-only effect, or another doubt; inactive = no such curve, though single readings can be large or run the other way. Potencies of inconclusive entries are doubtful fits and often do not repeat.
# Target: Histone acetyltransferase KAT2A (Homo sapiens) (UniProt Q92830)
# Assay: qHTS Assay for Inhibitors of GCN5L2
# Conditions: GCN5L2 HAT assay, ThioGlo1 CoA-SH fluorescence; activity change, negative = inhibition: at 58.9 µM (top of the series) unless noted
# Outline: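 Compounds, pin-transferred from DMSO stocks, meet 20nM GCN5L2 for 15 min before the reaction begins with H3(1-25) peptide (75uM) and acetyl-CoA (70uM). Thiol-reactive ThioGlo1 reports CoA release over 20 min at room temperature.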
# % is scaled to controls: 0 for no effect and ±100 for the full control effect; potency is read from the fitted curve at half-maximal effect.
Structure (SMILES),"activity change, negative = inhibition",Potency
CCc1ccc2occ(CC(=O)Nc3ccccc3C(F)(F)F)c2c1,inactive: 4.9%,–
Cc1ncc(CO)c(/C=N/NC(=O)c2ccccc2Br)c1O,–,"inconclusive: 0.141 µM [inhibitor, full curve, poor fit]"
CCOc1ccc(S(=O)(=O)NCCC(=O)N2CCC(Cc3ccccc3)CC2)cc1,–,"inconclusive: 17.8 µM [inhibitor, partial curve]"
Cc1nc2sc(C(N)=O)c(N)c2c2c1CCCC2,inactive: -12.8%,–
CC1(C)Cc2c(cnn2-c2ccccc2)C(=O)/C1=N\NC(=O)c1ccccc1N,inconclusive: -40% [inhibitor],–
COC(=O)c1ccc(OC)c(Cn2c(=O)n(C)c(=O)c3sccc32)c1,–,"inconclusive: 15.8 µM [inhibitor, partial curve]"
O=c1[nH]c(/C=C/c2ccccc2)c([N+](=O)[O-])c(=O)[nH]1,inactive: -23.5%,–
CN1CCN(c2cc3c(cc2F)c(=O)c(C(=O)O)cn3-c2ccc(F)cc2)CC1,–,"inconclusive: 28.2 µM [inhibitor, single point]"
O=C(c1cc(COc2ccc(F)cc2Cl)on1)N1CCN(C2CCCCC2)C(=O)C1,inactive: -3.91%,–
Cn1cc(-c2nc3cnc(N4CCNCC4)nc3n(C)c2=O)c2ccccc21,–,"inconclusive: 39.8 µM [inhibitor, single point]"
Cc1nc2c(C(=O)NCc3ccccc3)c[nH]n2c(=O)c1Cc1ccccc1Cl,–,"inconclusive: 31.6 µM [inhibitor, single point]"
O=C(Nc1ccccc1)c1cc(S(=O)(=O)N2CCCCC2)ccc1N1CCOCC1,–,"inconclusive: 39.8 µM [inhibitor, single point]"
CCCOC1(C(F)(F)F)NC(=O)N(c2ccc(Cl)cc2)C1=O (stereo unspecified),inactive: -6.2%,–
CCCCSc1nc2ccccc2[nH]1,–,"inconclusive: 39.8 µM [inhibitor, single point]"
CCCCn1c(=O)[nH]c(=O)c2c1nc(CN(C)Cc1cccc(OC)c1OC)n2CCC,inactive: -7.3%,–
Cc1ccc2c(c1)N(C(=O)CCC(=O)Nc1ccccc1Br)CC(C)O2 (stereo unspecified),–,"inconclusive: 0.794 µM [inhibitor, single point]"
CCC(=O)NC1=C(Nc2ccc(N)cc2)C(=O)c2ccccc2C1=O,inactive: 0.798%,–
CCOC(=O)c1c(S(=O)(=O)N2CCCC(C(=O)Nc3cccc(Cl)c3)C2)c(C)n(C)c1C (stereo unspecified),inactive: 2.97%,–
Cc1onc(-c2ccccc2)c1-c1nnc(COC(=O)c2ccc(O)cc2)o1,–,"inconclusive: 22.4 µM [inhibitor, single point]"
Cc1cccc(C(=O)Nc2nc(C)c(C(=O)Nc3ccc4c(c3)CCC4)s2)c1,–,"inconclusive: 7.08 µM [inhibitor, single point]"
COc1ccc(-c2cc3ccc(O)c(CN4CCOCC4)c3oc2=O)cc1OC,–,"inconclusive: 39.8 µM [inhibitor, single point]"
COc1ccc(N(C)C(=O)c2cn(C3CCCCC3)c(=O)c3c2c2ccccc2n3C)cc1,inactive: -3.28%,–
C=CCn1nnnc1SCC(=O)Nc1cccc(C(F)(F)F)c1,–,"inconclusive: 14.1 µM [inhibitor, partial curve, poor fit]"

# Part of the list above, as tab-separated lines.
Structure (SMILES)	activity change, negative = inhibition	Potency
CCOC(=O)c1c(S(=O)(=O)N2CCCC(C(=O)Nc3cccc(Cl)c3)C2)c(C)n(C)c1C (stereo unspecified)	inactive: 2.97%	–
Cc1onc(-c2ccccc2)c1-c1nnc(COC(=O)c2ccc(O)cc2)o1	–	inconclusive: 22.4 µM [inhibitor, single point]
Cc1cccc(C(=O)Nc2nc(C)c(C(=O)Nc3ccc4c(c3)CCC4)s2)c1	–	inconclusive: 7.08 µM [inhibitor, single point]

# Following part:

Structure (SMILES),"activity change, negative = inhibition",Potency
CC(=O)c1cccc(NC(=O)NNC(=O)c2ccc(-c3ccccc3)cc2)c1,–,"inconclusive: 15.8 µM [inhibitor, partial curve, poor fit]"
Cc1ccc2nc(N3C(=O)C(O)=C(C(=O)c4ccco4)C3c3cccs3)sc2c1 (stereo unspecified),–,"inconclusive: 39.8 µM [inhibitor, single point]"
COC(=O)c1c(-c2cccs2)csc1NC(=O)COc1ccc(C(C)(C)C)cc1,inactive: -18.2%,–
Cc1ccc(N(CCCCN2C(=O)c3ccccc3C2=O)C(=O)c2cccc([N+](=O)[O-])c2)cc1,–,"inconclusive: 39.8 µM [inhibitor, single point]"
CN(CC(=O)NCCc1ccccc1)S(=O)(=O)c1ccc(Br)cc1,–,"inconclusive: 1.26 µM [inhibitor, full curve, poor fit]"
CC(C)CCNC(=O)c1cc(-c2ccco2)nc2ccccc12,inactive: 0.993%,–
O=C1NC(=O)/C(=C\c2ccc(OCc3cnc(Cl)s3)cc2)S1,inactive: -9.44%,–
CC1COc2c(N3CCN(C)CC3)c(F)cc3c(=O)c(C(=O)O)cn1c23 (stereo unspecified),–,"inconclusive: 20 µM [inhibitor, single point]"
O=C(Nc1ccc(-c2cn3ccccc3n2)cc1)c1cccs1,inactive: -5.33%,–
Cc1ccc(NC(=O)CN2C(=O)NC3(CCCc4ccccc43)C2=O)c(C)c1 (stereo unspecified),–,"inconclusive: 0.708 µM [inhibitor, single point]"
COc1cc(C2CC(=O)Oc3c2c(=O)n(C)c2ccccc32)ccc1O (stereo unspecified),–,"inconclusive: 22.4 µM [inhibitor, partial curve]"
COc1cc(C[C@@H](C)[C@@H](C)Cc2ccc(O)c(OC)c2)ccc1O,inactive: -11.1%,–
CC(=O)Oc1ccc(-c2csc(Nc3cccc(C)n3)n2)cc1,–,"inconclusive: 25.1 µM [inhibitor, single point]"
N#C/C(=C\c1ccc(OCc2ccc(Br)cc2)cc1)C(=O)Nc1cccc(C(=O)O)c1,–,"inconclusive: 31.6 µM [inhibitor, single point]"
COc1cc(/C=N/NC(=O)c2c(-c3c(Cl)cccc3Cl)noc2C)ccc1OCC(N)=O,–,"inconclusive: 4.47 µM [inhibitor, partial curve, poor fit]"
O=C(N/N=C/c1cccs1)c1ccccn1,inactive: -27.7%,–
CCOC(=O)C1CCCN(Cc2cc(Br)ccc2OC)C1 (stereo unspecified),inactive: -8.34%,–
Cc1ccc(C(=O)NCc2ccc3c(c2)OCO3)cc1S(=O)(=O)N1CCOCC1,inactive: -8.39%,–
Cc1cccc(NC(=O)N2CC(=O)Nc3sc4c(c3C2c2ccccc2)CCCC4)c1C (stereo unspecified),inactive: -4.7%,–
CCOC(=O)C1=C(C)N(CCCCCC(=O)O)C(=O)NC1c1cccc([N+](=O)[O-])c1 (stereo unspecified),inactive: -5.1%,–
Cc1ccc(OC(=O)c2ccc3snnc3c2)cc1,–,"inconclusive: 25.1 µM [inhibitor, single point]"
COc1ccc(NC(=O)CSC2=Nc3ccccc3C3=NC(CCC(=O)NC4CCCCC4)C(=O)N23)cc1 (stereo unspecified),inactive: 0.617%,–
COc1ccc(N2CCN(S(=O)(=O)CCNS(=O)(=O)c3ccccc3)CC2)cc1,inactive: -14%,–
